These are yes or no findings as the source states them, for the method shown. In cells and extracts the contact can be indirect. Some results given as binding are weak or reduced against the parent protein; the word gives no strength. Where a sequence is shown, tags or fusion partners need not be part of it.
T1: chicken p53 (p53-Flag, from pCAG-p53-Flag) (chicken) (UniProt P10360)
T1 sequence: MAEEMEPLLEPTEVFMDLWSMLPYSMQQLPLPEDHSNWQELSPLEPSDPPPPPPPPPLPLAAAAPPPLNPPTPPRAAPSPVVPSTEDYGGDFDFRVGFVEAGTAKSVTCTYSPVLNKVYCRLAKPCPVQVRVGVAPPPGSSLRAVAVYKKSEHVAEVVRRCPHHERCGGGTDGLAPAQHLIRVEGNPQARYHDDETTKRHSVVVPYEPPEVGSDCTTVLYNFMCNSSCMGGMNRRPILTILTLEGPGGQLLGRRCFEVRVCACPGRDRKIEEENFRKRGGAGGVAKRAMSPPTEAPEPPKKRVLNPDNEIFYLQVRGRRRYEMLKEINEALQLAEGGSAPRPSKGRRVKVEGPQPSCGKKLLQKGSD

T2: chicken Fos (Fos-HA, from pCAG-Fos-HA) (chicken) (UniProt P11939)
T2 sequence: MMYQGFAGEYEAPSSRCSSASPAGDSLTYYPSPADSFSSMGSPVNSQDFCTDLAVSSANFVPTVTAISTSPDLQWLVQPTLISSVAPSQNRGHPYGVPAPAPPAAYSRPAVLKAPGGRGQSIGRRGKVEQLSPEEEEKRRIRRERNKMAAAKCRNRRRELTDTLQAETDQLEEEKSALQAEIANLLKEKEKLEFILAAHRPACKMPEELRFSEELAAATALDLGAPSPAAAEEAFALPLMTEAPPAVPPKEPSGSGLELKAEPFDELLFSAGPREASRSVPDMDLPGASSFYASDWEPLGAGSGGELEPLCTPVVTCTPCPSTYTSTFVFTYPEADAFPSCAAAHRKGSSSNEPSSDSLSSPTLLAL


Columns and labels:
[1] = molecular target: T1, chicken p53 (p53-Flag, from pCAG-p53-Flag) (chicken); assay: co-IP; LMH cells co-transfected with pCAG-Fos-HA and pCAGGS-p53-Flag; lysates with Protein A/G magnetic beads and anti-HA, anti-Flag or control IgG, 2 h at 4 °C; four washes with PBST; Western blot with HA or Flag antibody
[2] = molecular target: T2, chicken Fos (Fos-HA, from pCAG-Fos-HA) (chicken); assay: as above

Binder | binding [1] | binding [2]
chicken Fos (Fos-HA, from pCAG-Fos-HA) (protein, UniProt P11939 1-367) MMYQGFAGEYEAPSSRCSSASPAGDSLTYYPSPADSFSSMGSPVNSQDFCTDLAVSSANFVPTVTAISTSPDLQWLVQPTLISSVAPSQNRGHPYGVPAPAPPAAYSRPAVLKAPGGRGQSIGRRGKVEQLSPEEEEKRRIRRERNKMAAAKCRNRRRELTDTLQAETDQLEEEKSALQAEIANLLKEKEKLEFILAAHRPACKMPEELRFSEELAAATALDLGAPSPAAAEEAFALPLMTEAPPAVPPKEPSGSGLELKAEPFDELLFSAGPREASRSVPDMDLPGASSFYASDWEPLGAGSGGELEPLCTPVVTCTPCPSTYTSTFVFTYPEADAFPSCAAAHRKGSSSNEPSSDSLSSPTLLAL | binds | –
chicken p53 (p53-Flag, from pCAG-p53-Flag) (protein, UniProt P10360 1-367) MAEEMEPLLEPTEVFMDLWSMLPYSMQQLPLPEDHSNWQELSPLEPSDPPPPPPPPPLPLAAAAPPPLNPPTPPRAAPSPVVPSTEDYGGDFDFRVGFVEAGTAKSVTCTYSPVLNKVYCRLAKPCPVQVRVGVAPPPGSSLRAVAVYKKSEHVAEVVRRCPHHERCGGGTDGLAPAQHLIRVEGNPQARYHDDETTKRHSVVVPYEPPEVGSDCTTVLYNFMCNSSCMGGMNRRPILTILTLEGPGGQLLGRRCFEVRVCACPGRDRKIEEENFRKRGGAGGVAKRAMSPPTEAPEPPKKRVLNPDNEIFYLQVRGRRRYEMLKEINEALQLAEGGSAPRPSKGRRVKVEGPQPSCGKKLLQKGSD | – | binds

— publication PMC10454551
